Measured values from patent publication US7705016B2, “Regulation of food intake by modulation of long-chain fatty acyl-CoA levels in the hypothalamus” (Albert Einstein College of Medicine of Yeshiva University, priority 2003, dated 2010).

Tested on: male Sprague-Dawley (S-D) rats
Assay: ICV OA infusion with pancreatic-insulin clamp (insulin action studies)
Assay type: in vivo, rat
Details: Basal
Excerpt: Insulin action studies. The experimental protocol herein was designed to examine the effect of nutritional status on the ability of long-chain fatty acids in the hypothalamus to modulate carbohydrate metabolism. Rats (n=43) were implanted with chronic catheters as previously described (Liu et al., 1998). After full recovery from the catheterization, animals were randomized into three groups HF55 (n=16), HF80 (n=9), or HF140 (n=18) and were allowed to consume their allocated diet for three days. On the night prior to the in vivo study all rats received 55 kcal to ensure a similar nutritional state at the start of the metabolic studies. All studies were performed in awake, unstressed, chronically catheterized rats. At t=−120 (FIG. 7a), a primed-continuous infusion of ICV OA (total dose 30- or 300-nmol) or Vehicle (HBP 10% in aCSF) was initiated and maintained throughout the duration of the study. Plasma glucose was measured periodically initiating at the onset (t=−120) of the ICV infusion and lasting throughout the duration of the study. Plasma samples for determination of insulin, leptin, and non-esterified fatty acid concentration were obtained at the onset (t=−120) and at 30 min intervals during the study. At t=0, and a primed-continuous infusion of HPLC-purified [3-3H]-glucose (New England Nuclear, Boston, Mass.; 40 μCi bolus, 0.4 μCi/min for duration of the study) was initiated and maintained for the last four hours of the study. Samples for determination of ^3H-glucose specific activity were obtained at 10-minute intervals throughout infusions. Finally, at t=120, a pancreatic-insulin clamp study was initiated and maintained for two hours. During this procedure, a primed-continuous infusion of regular insulin (1 mU/kg/min) was administered, and a variable infusion of 25% glucose solution was started at t=120 and periodically adjusted to clamp the plasma glucose concentration at ˜7 mM. […]
Analytical Procedures and Calculations. Plasma glucose was measured by the glucose oxidase method (Glucose Analyzer II, Beckman Instruments, Inc. Fullerton, Calif., USA). Plasma insulin and leptin levels were determined by RIA (rat Leptin RIA kit, Linco Research Inc., St. Charles, Mo.). Serum adiponectin was measured by RIA (Linco Research, Inc., St. Charles, Mo.). Plasma non-esterified fatty acid concentrations were determined an enzymatic method by an automated kit according to the manufacturer's specifications (Waco Pure Chemical Industries. Osaka, Japan). The radioactivity of [3-^3H]glucose in plasma was measured from supernatants of Ba (OH)2 and from ZnSO4 precipitates (Somogyi procedure), after each was evaporated to dryness for the removal of tritiated water. […]

CCCCCCCC/C=C\CCCCCCCC(=O)O [OA, oleic acid]
Adiponectin (HF55, ICV OA): 3.6 ± 0.5 µg/mL
Adiponectin (HF80, ICV OA): 2.9 ± 0.4 µg/mL
Adiponectin (HF140, ICV OA (30 nmol)): 3.8 ± 0.3 µg/mL
Adiponectin (HF140, ICV OA (300 nmol)): 4.0 ± 0.5 µg/mL
